Assay results: PMC10132759

Amino acid sequences for entries named in this document (tags omitted). A change or cut given only in a name is not applied to a line headed by its entry. Chains listed by the source or under a name are the forms on record and can include a tag or linker.
UniProt Q60780: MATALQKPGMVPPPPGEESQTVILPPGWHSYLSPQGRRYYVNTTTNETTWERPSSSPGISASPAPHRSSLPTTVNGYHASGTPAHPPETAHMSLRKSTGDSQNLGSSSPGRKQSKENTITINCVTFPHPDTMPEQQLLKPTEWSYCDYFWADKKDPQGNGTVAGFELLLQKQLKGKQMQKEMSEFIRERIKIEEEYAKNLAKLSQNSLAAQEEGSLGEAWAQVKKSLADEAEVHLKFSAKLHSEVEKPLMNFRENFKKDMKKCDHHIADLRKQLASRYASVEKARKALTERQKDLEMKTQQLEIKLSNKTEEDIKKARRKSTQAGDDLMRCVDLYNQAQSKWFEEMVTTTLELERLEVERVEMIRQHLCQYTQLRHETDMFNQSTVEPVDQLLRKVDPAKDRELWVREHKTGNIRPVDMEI
UniProt Q95107: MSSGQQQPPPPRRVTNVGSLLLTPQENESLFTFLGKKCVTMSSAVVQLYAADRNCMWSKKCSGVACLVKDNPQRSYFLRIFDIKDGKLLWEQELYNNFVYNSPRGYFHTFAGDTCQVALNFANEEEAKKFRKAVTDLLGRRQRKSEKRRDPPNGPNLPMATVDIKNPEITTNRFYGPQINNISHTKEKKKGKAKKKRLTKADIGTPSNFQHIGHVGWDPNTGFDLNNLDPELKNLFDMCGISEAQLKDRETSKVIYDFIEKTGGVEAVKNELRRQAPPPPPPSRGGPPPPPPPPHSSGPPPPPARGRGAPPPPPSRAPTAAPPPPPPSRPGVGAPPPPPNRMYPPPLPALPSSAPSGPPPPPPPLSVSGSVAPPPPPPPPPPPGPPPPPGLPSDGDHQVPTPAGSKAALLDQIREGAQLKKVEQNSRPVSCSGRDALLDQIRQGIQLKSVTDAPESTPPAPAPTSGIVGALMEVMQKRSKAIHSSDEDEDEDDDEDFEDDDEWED
N-WASP ΔPRR without a tag (Q95107, form named): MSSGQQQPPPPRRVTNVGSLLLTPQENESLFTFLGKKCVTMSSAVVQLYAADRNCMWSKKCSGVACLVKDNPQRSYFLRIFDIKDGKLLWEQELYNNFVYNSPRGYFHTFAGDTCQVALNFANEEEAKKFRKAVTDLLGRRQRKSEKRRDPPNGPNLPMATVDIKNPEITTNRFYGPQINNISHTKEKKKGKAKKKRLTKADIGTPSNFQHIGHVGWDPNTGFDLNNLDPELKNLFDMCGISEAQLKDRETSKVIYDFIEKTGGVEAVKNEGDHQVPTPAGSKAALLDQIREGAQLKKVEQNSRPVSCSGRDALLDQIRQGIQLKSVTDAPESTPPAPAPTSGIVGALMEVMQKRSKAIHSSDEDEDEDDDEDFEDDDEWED

Target: GST-GAS7cb (mouse) (UniProt Q60780)
Assay: pull-down; 1 μM GST-fused protein (or GST) on Glutathione Sepharose beads; 0.5 μM tag-free protein (1 μM for Nck and Grb2 with N-WASP and GAS7 isoforms); 10 mM tris-HCl pH 7.5, 150 mM NaCl, 1 mM EDTA, 5% glycerol; 4°C, 1 hour; SDS-PAGE and Western blotting; both purified

Substance | binding
N-WASP ΔPRR without a tag (from UniProt Q95107) | binds
N-WASP without a tag (from UniProt Q95107 1-505) | binds
Grb2 without a tag (from UniProt P62994-1 1-217) | no binding (tested: 1 μM)

Results are given in words; binding and its absence hold for the method and conditions named. A result given as binding can be weak or reduced; the word gives no strength.
